Data as given in PubChem BioAssay AID686943 (Drosophila RNAi Screening Center, 2013)
Purpose: 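Search across the genome for regulators of signalling from receptor tyrosine kinase to ERK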 (primary screen). Cell system: Drosophila S2R+ haemocyte-like cells expressing YFP-tagged ERK (Rolled). Knock-down reagent: long dsRNA against Drosophila genes. Conditions: insulin stimulation versus unstimulated cells; dose and duration not given. Detection: 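Antibody staining for doubly phosphorylated ERK divided by ERK-YFP signal, as plate z-scores, in insulin-treated and untreated cells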. Direction: replicate 1, z-score of dpERK with insulin and replicate 2, z-score of dpERK with insulin: higher = more active ERK per ERK-YFP after insulin; replicate 1, z-score of dpERK under basal conditions: higher = more basal active ERK per ERK-YFP; replicate 1, z-score of ERK-YFP with insulin: higher = more YFP-tagged ERK signal.
In all, the deposit lists about 23,000 reagents; below is an unselected part of those with a known target gene and a result. 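Extra replicates exist only for a retested subset of genes; insulin dose and duration not given; both raised and lowered dpERK matter.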 Reagents against one gene are numbered here. Names joined by + are all predicted targets of the reagent. The record does not give: the amount of reagent, the time to read-out.

no.	gene knocked down	dsRNA no.	replicate 1, z-score of dpERK with insulin	replicate 2, z-score of dpERK with insulin	replicate 1, z-score of dpERK under basal conditions	replicate 1, z-score of ERK-YFP with insulin
1	CG42322 (GeneID 42455)	1	0.37	0.27	-0.22	0.88
2	CG42322 (GeneID 42455)	2	0.56	0.14	0.9	0.1
3	CG42322 (GeneID 42455)	3	-0.83	-0.81	-0.95	3.57
4	Poc1 (GeneID 39502)	1	-0.1	-1.01	1.01	-0.47
5	CG6472 (GeneID 36895)	1	0.15	-0.61	1.17	0.57
6	mRpS17 (GeneID 37872)	1	-0.25	0.26	-0.82	1.89
7	Bem46 (GeneID 44441)	1	0.48	0.3	0.19	-1.52
8	Spn100A (GeneID 43642)	1	-0.2	-0.2	0.11	-0.58
9	Alp8 (GeneID 37540)	1	-0.01	-0.42	-0.49	0.44
10	CG42633 (GeneID 8674052)	1	0.23	0.53	0.51	0.21
11	Dg (GeneID 36773)	1	-0.88	0.26	-0.26	0.6
12	bero (GeneID 35355)	1	0.16	-0.91	-0.75	0.22
13	Mayo (GeneID 43678)	1	-0.06	0.13	0.57	0.62
14	sphe (GeneID 32648)	1	0.31	0.15	1.43	-0.03
15	AstA (GeneID 42947)	1	0.33	0.12	-1.07	-0.03
16	CG43996 + CG43997	1	-0.95	0.13	-0.14	1.44
17	CG43996 + CG43997	2	-0.1	-0.26	0.02	0.33
18	hook (GeneID 35169)	1	-0.36	0.16	0.09	0.35
19	CG9500 (GeneID 33888)	1	0.57	-0.3	1.49	0.25
20	ind (GeneID 2768974)	1	-4.81	-4.82	-3.42	-3.05
21	CG33752 (GeneID 3771860)	1	0.16	0.07	-0.46	-0.17
22	nrv2 (GeneID 33953)	1	-1.08	0.16	-0.42	-0.15
23	nrv2 (GeneID 33953)	2	0.93	0.19	0.43	0.86
24	CG18536 (GeneID 37093)	1	0.06	0.31	-0.38	0.37
25	CG5225 (GeneID 42053)	1	0.25	0	0.74	1.11
26	Vmat + CG13330	1	-0.09	-0.07	0.86	-0.11
27	Nepl13 (GeneID 42699)	1	-0.07	-0.11	0.55	0.18
28	CG15046 (GeneID 32833)	1	1.03	-0.17	0.21	-0.2
29	apt (GeneID 37734)	1	-3.41	-4.47	-0.43	2.27
30	Kmn1 (GeneID 32102)	1	-0.02	0.33	-0.76	0.23
31	MED4 (GeneID 38799)	1	3.23	2.84	-0.74	-1.38
32	Mks1 (GeneID 32200)	1	-0.17	0.09	0.64	-0.1
33	cal1 (GeneID 42065)	1	0.12	-0.02	0.22	-0.4
34	FoxP (GeneID 41182)	1	-0.27	-0.25	-0.58	0.31
35	FoxP (GeneID 41182)	2	0.02	-1.54	-0.14	-0.79
36	CG14655 (GeneID 40594)	1	-0.2	0.04	-0.68	1.09

Reprinted from above (9 entries):
no.	gene knocked down	dsRNA no.	replicate 1, z-score of dpERK with insulin	replicate 2, z-score of dpERK with insulin	replicate 1, z-score of dpERK under basal conditions	replicate 1, z-score of ERK-YFP with insulin
13	Mayo (GeneID 43678)	1	-0.06	0.13	0.57	0.62
14	sphe (GeneID 32648)	1	0.31	0.15	1.43	-0.03
15	AstA (GeneID 42947)	1	0.33	0.12	-1.07	-0.03
16	CG43996 + CG43997	1	-0.95	0.13	-0.14	1.44
17	CG43996 + CG43997	2	-0.1	-0.26	0.02	0.33
18	hook (GeneID 35169)	1	-0.36	0.16	0.09	0.35
19	CG9500 (GeneID 33888)	1	0.57	-0.3	1.49	0.25
20	ind (GeneID 2768974)	1	-4.81	-4.82	-3.42	-3.05
21	CG33752 (GeneID 3771860)	1	0.16	0.07	-0.46	-0.17

More results follow:
no.	gene knocked down	dsRNA no.	replicate 1, z-score of dpERK with insulin	replicate 2, z-score of dpERK with insulin	replicate 1, z-score of dpERK under basal conditions	replicate 1, z-score of ERK-YFP with insulin
37	Rh4 (GeneID 39887)	1	0.58	-0.06	0.79	0.06
38	Not11 (GeneID 37839)	1	1.05	0.24	0.22	-0.33
39	pont (GeneID 53439)	1	0.55	-0.57	-3.19	2.99
40	CG18538 (GeneID 37095)	1	0.37	0.95	0.89	0.46
41	St1 (GeneID 37742)	1	-0.37	0.08	-0.91	0.47
42	Rheb (GeneID 117332)	1	2.47	2.38	-0.59	-0.81
43	RpL36 (GeneID 31009)	1	-0.27	-0.68	-1.48	-4.53
44	kz (GeneID 31205)	1	-0.31	0.68	1.44	-0.46
45	Nnf1a (GeneID 37325)	1	-1.12	-1.57	-0.04	0.67
46	Acp62F (GeneID 38340)	1	1.44	0.54	-0.28	-0.95
47	lqfR (GeneID 42632)	1	-0.08	0.04	-0.23	-0.35
48	lqfR (GeneID 42632)	2	0.94	0.96	-0.91	-0.5
49	CG32986 (GeneID 34208)	1	-0.03	-0.21	0.57	-0.7
50	Spn28B (GeneID 34035)	1	0.38	0.15	0.77	-1.31
51	CG31549 (GeneID 40689)	1	1.35	1.03	0.08	-3.12
52	nocte (GeneID 31976)	1	-0.94	-0.12	0.25	2.2
53	CG33458 (GeneID 2768846)	1	1.58	0.45	0.25	1.92
54	Tep1 (GeneID 34937)	1	0.39	0.06	0.46	-0.28
55	CG9593 (GeneID 41912)	1	1.15	-1.54	-0.15	0.1
56	CG9631 (GeneID 41729)	1	-0.04	-0.15	-0.7	-0.29
57	ogre (GeneID 45382)	1	-0.44	-0.14	0.6	0.17
